Drawing on patent publication JP2018038398A, this text covers binding for 15 molecules.

The chains behind the UniProt entries cited, without tags or fusion partners. Residues count along the entry.
UniProt P10646, residues 29-304: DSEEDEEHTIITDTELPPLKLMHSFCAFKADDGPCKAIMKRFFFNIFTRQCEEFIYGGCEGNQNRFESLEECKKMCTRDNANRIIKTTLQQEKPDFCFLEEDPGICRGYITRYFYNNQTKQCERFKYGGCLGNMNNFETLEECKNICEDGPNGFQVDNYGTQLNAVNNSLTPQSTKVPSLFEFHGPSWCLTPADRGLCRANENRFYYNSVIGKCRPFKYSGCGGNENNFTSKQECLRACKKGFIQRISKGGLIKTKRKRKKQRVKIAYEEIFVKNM

These are yes or no findings as the source states them, for the method shown. Some binding calls cover weakened binding; strength is not graded here.

B1: TP-2G9 (Fab, V domains shown)
VH: QVQLVESGGGLVQPGGSLRLSCAASGFTFNSYAMTWVRQAPGKGLEWVSAIKSDGSNTYYADSVKGRFTISRDNSKNTLYLQMNSLRAEDTAVYYCARNDSGWFDVWGQGTLVTVSS
VL: DIALTQPASVSGSPGQSITISCTGTSSDLGGFNTVSWYQQHPGKAPKLMIYSVSSRPSGVSNRFSGSKSGNTASLTISGLQAEDEADYYCQSYDLNNLVFGGGTKLTVLG
B2: TP-2C1 (Fab, V domains shown)
VH: QVQLVESGGGLVQPGGSLRLSCAASGFTFSPYVMSWVRQAPGKGLEWVSSISSSSSNTYYADSVKGRFTISRDNSKNTLYLQMNSLRAEDTAVYYCARGDSYMYDVWGQGTLVTVSS
VL: DIELTQPPSVSVAPGQTARISCSGDSIGSYYAHWYQQKPGQAPVLVIYYDSKRPSGIPERFSGSNSGNTATLTISGTQAEDEADYYCQAYTGQSISRVFGGGTKLTVLG
B3: TP-2A2 (Fab, V domains shown)
VH: QVQLVESGGGLVQPGGSLRLSCAASGFTFSNNAMNWVRQAPGKGLEWVSTISYDGSNTYYADSVKGRFTISRDNSKNTLYLQMNSLRAEDTAVYYCARQAGGWTYSYTDVWGQGTLVTVSS
VL: DIELTQPPSVSVAPGQTARISCSGDNIRTYYVHWYQQKPGQAPVVVIYGDSKRPSGIPERFSGSNSGNTATLTISGTQAEDEADYYCQSYDSEADSEVFGGGTKLTVLG
B4: TP-2G7 (Fab, V domains shown)
VH: QVQLVESGGGLVQPGGSLRLSCAASGFTFNSYAMSWVRQAPGKGLEWVSNISSNSSNTYYADSVKGRFTISRDNSKNTLYLQMNSLRAEDTAVYYCARKGGGEHGFFPSDIWGQGTLVTVSS
VL: DIELTQPPSVSVAPGQTARISCSGDNLGTYYVHWYQQKPGQAPVLVIYGDNNRPSGIPERFSGSNSGNTATLTISGTQAEDEADYYCQTYDSNNESIVFGGGTKLTVLG
B5: TP-2B9 (Fab, V domains shown)
VH: QVQLQQSGPGLVKPSQTLSLTCAISGDSVSSNSAAWGWIRQSPGRGLEWLGMIYHRSKWYNDYAVSVKSRITINPDTSKNQFSLQLNSVTPEDTAVYYCARYSSIGHMDYWGQGTLVTVSS
VL: DIQMTQSPSSLSASVGDRVTITCRASQSIRSYLAWYQQKPGKAPKLLIYKASNLQSGVPSRFSGSGSGTDFTLTISSLQPEDFAVYYCHQYSDSPVTFGQGTKVEIKR
B6: TP-2C7 (Fab, V domains shown)
VH: QVQLQQSGPGLVKPSQTLSLTCAISGDSVSSNSAAWGWIRQSPGRGLEWLGIIYYRSKWYNHYAVSVKSRITINPDTSKNQFSLQLNSVTPEDTAVYYCARSNWSGYFDYWGQGTLVTVSS
VL: DIQMTQSPSSLSASVGDRVTITCRASQDIRNNLAWYQQKPGKAPKLLIYAASSLQSGVPSRFSGSGSGTDFTLTISSLQPEDFAVYYCQQRNGFPLTFGQGTKVEIKR
B7: TP-2E3 (Fab, V domains shown)
VH: QVQLQQSGPGLVKPSQTLSLTCAISGDSVSSNSAAWGWIRQSPGRGLEWLGMIYYRSKWYNDYAVSVKSRITINPDTSKNQFSLQLNSVTPEDTAVYYCARVNQYTSSDYWGQGTLVTVSS
VL: DIALTQPASVSGSPGQSITISCTGTSSDIGGYNYVSWYQQHPGKAPKLMIYGVNYRPSGVSNRFSGSKSGNTASLTISGLQAEDEADYYCSSADKFTMSIVFGGGTKLTVLG
B8: TP-3A2 (Fab, V domains shown)
VH: QVQLVESGGGLVQPGGSLRLSCAASGFTFSNYYLSWVRQAPGKGLEWVSGISYNGSSTNYADSVKGRFTISRDNSKNTLYLQMNSLRAEDTAVYYCARMWRYSLGADSWGQGTLVTVSS
VL: DIELTQPPSVSVAPGQTARISCSGDNIGSRYAYWYQQKPGQAPVVVIYDDSDRPSGIPERFSGSNSGNTATLTISGTQAEDEADYYCAAYTFYARTVFGGGTKLTVLG
B9: TP-2E5 (Fab, V domains shown)
VH: QVQLQQSGPGLVKPSQTLSLTCAISGDSVSSNSAAWSWIRQSPGRGLEWLGMIFYRSKWNNDYAVSVKSRITINPDTSKNQFSLQLNSVTPEDTAVYYCARVNANGYYAYVDLWGQGTLVTVSS
VL: DIQMTQSPSSLSASVGDRVTITCRASQPIYNSLSWYQQKPGKAPKLLIYGVSNLQSGVPSRFSGSGSGTDFTLTISSLQPEDFAVYYCLQVDNLPITFGQGTKVEIKR
B10: TP-3A3 (Fab, V domains shown)
VH: QVQLVESGGGLVQPGGSLRLSCAASGFTFNNNAISWVRQAPGKGLEWVSAINSSSSSTSYADSVKGRFTISRDNSKNTLYLQMNSLRAEDTAVYYCARGHHRGHSWASFIDYWGQGTLVTVSS
VL: DIELTQPPSVSVAPGQTARISCSGDNIGSKYVHWYQQKPGQAPVVVIYEDSDRPSGIPERFSGSNSGNTATLTISGTQAEDEADYYCQSWDKSEGYVFGGGTKLTVLG
B11: TP-2G4 (Fab, V domains shown)
VH: QVQLVESGGGLVQPGGSLRLSCAASGFTFSSYAMTWVRQAPGKGLEWVSNISYSGSNTYYADSVKGRFTISRDNSKNTLYLQMNSLRAEDTAVYYCARVGYYYGFDYWGQGTLVTVSS
VL: DIELTQPPSVSVAPGQTARISCSGDALRKHYVYWYQQKPGQAPVLVIYGDNNRPSGIPERFSGSNSGNTATLTISGTQAEDEADYYCQSYDKPYPILVFGGGTKLTVLG
B12: TP-3A4 (Fab, V domains shown)
VH: QVQLVESGGGLVQPGGSLRLSCAASGFTFSSYWMHWVRQAPGKGLEWVSSISYDSSNTYYADSVKGRFTISRDNSKNTLYLQMNSLRAEDTAVYYCARYGGMDYWGQGTLVTVSS
VL: DIELTQPPSVSVAPGQTARISCSGDNLRDKYASWYQQKPGQAPVLVIYSKSERPSGIPERFSGSNSGNTATLTISGTQAEDEADYYCSSYTLNPNLNYVFGGGTKLTVLG
B13: TP-2G6 (Fab, V domains shown)
VH: QVQLQQSGPGLVKPSQTLSLTCAISGDSVSSSSAAWSWIRQSPGRGLEWLGIIYYRSKWYNDYAVSVKSRITINPDTSKNQFSLQLNSVTPEDTAVYYCARHSMVGFDVWGQGTLVTVSS
VL: DIVLTQSPATLSLSPGERATLSCRASQYVTSSYLAWYQQKPGQAPRLLIYGSSRATGVPARFSGSGSGTDFTLTISSLEPEDFATYYCQQYSSSPITFGQGTKVEIKR
B14: TP-2A5.1 (Fab, V domains shown)
VH: QVQLVESGGGLVQPGGSLRLSCAASGFTFSSYGSWVRQAPGKGLEWVSVISGSGSSTYYADSVKGRFTISRDNSKNTLYLQMNSLRAEDTAVYYCARVNISTHFDVWGQGTLVTVSS
VL: DIELTQPPSVSVAPGQTARISCSGDNIPEKYVHWYQQKPGQAPVLVIHGDNNRPSGIPERFSGSNSGNTATLTISGTQAEDEADYYCQSFDAGSYFVFGGGTKLTVLG
B15: TP-2G2 (Fab, V domains shown)
VH: QVQLVESGGGLVQPGGSLRLSCAASGFTFSSYAMNWVRQAPGKGLEWVSAILSDGSSTSYADSVKGRFTISRDNSKNTLYLQMNSLRAEDTAVYYCARYPDWGWYTDVWGQGTLVTVSS
VL: DIELTQPPSVSVAPGQTARISCSGDNIRKFYVHWYQQKPGQAPVLVIYGTNKRPSGIPERFSGSNSGNTATLTISGTQAEDEADYYCQSYDSKFNTVFGGGTKLTVLG

The target in the assay is ヒトTFPI(American Diagnostica) (human) (UniProt P10646). Kind of assay: ELISA screen of Fab lysates on coated human TFPI.
In the case of B1, the binding result is recorded as “binds”.
B2: the binding result is given as “binds”.
Consider B3, for which the binding result is on record as “binds”.
For B4, the binding result was “binds”.
For B5 the value was “binds”.
The entry for B6 is “binds”.
The entry for B7 is “binds”.
Consider B8, for which the binding entry is listed as “binds”.
For B9 the value was “binds”; for B10, “binds”.
The entry for B11 is “binds”; for B12 it is “binds”.
The entry for B13 is “binds”; for B14 it is “binds”.
For B15, the binding result was “binds”.
